Test results as given in article PMC11111765.
Results are given in words; binding and its absence hold for the method and conditions named. In cells and extracts the contact can be indirect. Some entries that bind do so weakly or less than the wild type. For some of these results: Where a sequence is shown, tags or fusion partners need not be part of it. Blank lines part the entries; values can stand above or below the binder they belong to.

Assays:
[1] = biological target: T1, FLAG-TRIM65 (human) (UniProt Q6PJ69); assay: co-IP; lysates of HEK293T cells expressing FLAG-TRIM65 and HA-BTG3; lysis buffer 0.5% Lubrol-Px, 50 mM KCl, 2 mM CaCl2, 20% glycerol, 50 mM Tris-HCl pH 7.4; protein-A or G beads, 4 °C
T1 sequence: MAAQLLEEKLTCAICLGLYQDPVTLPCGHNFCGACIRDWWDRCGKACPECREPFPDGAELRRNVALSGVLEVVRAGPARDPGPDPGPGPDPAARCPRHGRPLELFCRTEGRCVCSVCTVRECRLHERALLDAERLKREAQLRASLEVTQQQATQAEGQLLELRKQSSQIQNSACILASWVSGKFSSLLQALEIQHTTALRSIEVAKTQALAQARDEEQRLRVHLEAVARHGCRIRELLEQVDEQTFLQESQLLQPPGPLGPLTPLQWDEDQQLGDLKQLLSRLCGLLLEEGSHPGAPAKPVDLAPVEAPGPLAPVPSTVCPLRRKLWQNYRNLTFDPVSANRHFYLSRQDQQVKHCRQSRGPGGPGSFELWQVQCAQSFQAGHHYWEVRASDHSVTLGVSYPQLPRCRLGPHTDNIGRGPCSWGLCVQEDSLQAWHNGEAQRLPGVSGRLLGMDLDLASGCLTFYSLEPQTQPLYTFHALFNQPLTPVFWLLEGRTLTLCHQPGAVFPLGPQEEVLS

[2] = biological target: T2, recombinant GST-TRIM65 protein (human) (UniProt Q6PJ69); assay: pull-down; purified GST-TRIM65 or GST incubated overnight at 4 °C with lysates of HEK293T cells transfected with HA-BTG3 or its deletion mutants; Glutathione Sepharose 4B beads; immunoblotting; only the target purified
T2 sequence: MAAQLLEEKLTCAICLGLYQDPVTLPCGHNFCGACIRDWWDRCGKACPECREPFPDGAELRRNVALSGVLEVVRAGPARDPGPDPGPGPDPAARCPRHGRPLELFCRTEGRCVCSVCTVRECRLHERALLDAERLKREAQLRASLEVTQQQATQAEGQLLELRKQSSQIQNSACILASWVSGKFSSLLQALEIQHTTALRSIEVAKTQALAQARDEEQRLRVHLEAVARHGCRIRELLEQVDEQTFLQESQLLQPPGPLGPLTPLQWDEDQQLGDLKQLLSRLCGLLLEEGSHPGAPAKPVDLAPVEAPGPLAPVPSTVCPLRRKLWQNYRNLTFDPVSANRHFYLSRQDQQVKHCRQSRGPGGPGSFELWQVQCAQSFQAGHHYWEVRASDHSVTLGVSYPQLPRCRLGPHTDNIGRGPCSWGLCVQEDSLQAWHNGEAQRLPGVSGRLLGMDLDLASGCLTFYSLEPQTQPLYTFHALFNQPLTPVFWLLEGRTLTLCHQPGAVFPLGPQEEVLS

[3] = biological target: T3, endogenous TRIM65 (human (endogenous in ACHN)) (UniProt Q6PJ69); assay: co-IP; endogenous proteins in ACHN cells, with specific TRIM65 and BTG3 antibodies
T3 sequence: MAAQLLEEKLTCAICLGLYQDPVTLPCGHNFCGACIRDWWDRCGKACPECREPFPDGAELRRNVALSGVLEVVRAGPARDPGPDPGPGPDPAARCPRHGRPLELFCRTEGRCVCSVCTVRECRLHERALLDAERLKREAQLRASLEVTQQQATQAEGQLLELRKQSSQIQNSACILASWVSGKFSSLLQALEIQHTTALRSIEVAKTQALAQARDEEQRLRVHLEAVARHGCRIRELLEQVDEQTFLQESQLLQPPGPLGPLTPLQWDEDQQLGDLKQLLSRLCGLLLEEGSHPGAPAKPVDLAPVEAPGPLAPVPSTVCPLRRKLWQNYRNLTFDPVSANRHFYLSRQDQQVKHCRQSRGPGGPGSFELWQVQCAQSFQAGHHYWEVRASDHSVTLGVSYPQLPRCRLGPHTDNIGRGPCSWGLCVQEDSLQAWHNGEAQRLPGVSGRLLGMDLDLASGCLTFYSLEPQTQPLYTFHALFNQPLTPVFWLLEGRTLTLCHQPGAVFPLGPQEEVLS

[4] = biological target: T4, BTG3 of the co-IP with GFP-TRIM65 and its deletion mutants (UniProt Q14201); assay: co-IP; GFP-TRIM65 and its deletion mutants with BTG3, following MG132 treatment; cell line not stated
T4 sequence: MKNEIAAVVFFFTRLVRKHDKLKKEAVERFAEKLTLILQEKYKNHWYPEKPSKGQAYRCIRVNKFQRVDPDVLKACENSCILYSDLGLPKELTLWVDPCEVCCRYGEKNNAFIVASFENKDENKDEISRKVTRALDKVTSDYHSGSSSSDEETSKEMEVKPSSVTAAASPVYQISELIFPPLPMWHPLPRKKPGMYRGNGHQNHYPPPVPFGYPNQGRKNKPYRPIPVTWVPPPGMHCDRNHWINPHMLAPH

- binding [1]: binds
- binding [2]: binds
B1: HA-BTG3 (protein, UniProt Q14201 1-252)
chain: MKNEIAAVVFFFTRLVRKHDKLKKEAVERFAEKLTLILQEKYKNHWYPEKPSKGQAYRCIRVNKFQRVDPDVLKACENSCILYSDLGLPKELTLWVDPCEVCCRYGEKNNAFIVASFENKDENKDEISRKVTRALDKVTSDYHSGSSSSDEETSKEMEVKPSSVTAAASPVYQISELIFPPLPMWHPLPRKKPGMYRGNGHQNHYPPPVPFGYPNQGRKNKPYRPIPVTWVPPPGMHCDRNHWINPHMLAPH

- binding [3]: binds
B2: endogenous BTG3 (protein, UniProt Q14201 1-252)
chain: MKNEIAAVVFFFTRLVRKHDKLKKEAVERFAEKLTLILQEKYKNHWYPEKPSKGQAYRCIRVNKFQRVDPDVLKACENSCILYSDLGLPKELTLWVDPCEVCCRYGEKNNAFIVASFENKDENKDEISRKVTRALDKVTSDYHSGSSSSDEETSKEMEVKPSSVTAAASPVYQISELIFPPLPMWHPLPRKKPGMYRGNGHQNHYPPPVPFGYPNQGRKNKPYRPIPVTWVPPPGMHCDRNHWINPHMLAPH

- binding [4]: binds
B3: GFP-TRIM65 (full-length) (protein, UniProt Q6PJ69 1-517)
chain: MAAQLLEEKLTCAICLGLYQDPVTLPCGHNFCGACIRDWWDRCGKACPECREPFPDGAELRRNVALSGVLEVVRAGPARDPGPDPGPGPDPAARCPRHGRPLELFCRTEGRCVCSVCTVRECRLHERALLDAERLKREAQLRASLEVTQQQATQAEGQLLELRKQSSQIQNSACILASWVSGKFSSLLQALEIQHTTALRSIEVAKTQALAQARDEEQRLRVHLEAVARHGCRIRELLEQVDEQTFLQESQLLQPPGPLGPLTPLQWDEDQQLGDLKQLLSRLCGLLLEEGSHPGAPAKPVDLAPVEAPGPLAPVPSTVCPLRRKLWQNYRNLTFDPVSANRHFYLSRQDQQVKHCRQSRGPGGPGSFELWQVQCAQSFQAGHHYWEVRASDHSVTLGVSYPQLPRCRLGPHTDNIGRGPCSWGLCVQEDSLQAWHNGEAQRLPGVSGRLLGMDLDLASGCLTFYSLEPQTQPLYTFHALFNQPLTPVFWLLEGRTLTLCHQPGAVFPLGPQEEVLS
